PubChem BioAssay AID2685 (National Center for Advancing Translational Sciences (NCATS), 2010)
The list shows a part of the results. Further columns of the screen follow, without active or inactive calls. The list favours compounds with an active or inconclusive main result. Words in brackets tell the shape of the fitted curve; partial curves, single points and poor fits give uncertain potencies.

Experiment: qHTS Assay for Lipid Storage Modulators in Drosophila S3 Cells;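 on cell number change: cells counted by Cell Tracker Red CMTPX staining in the red channel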
Settings: BODIPY lipid droplet fluorescence, 18-24 h; for cell number change: measured here: cell count max response, cells fed with added oleic acid
Procedure, shortened: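 Drosophila S3 cells loaded with oleic acid (400 uM, as added) and compounds at several concentrations; lipid droplets imaged by 488-nm laser-scanning cytometry, 500–530 nm intensity and object ratio to cell channel. Percent activity normalized to 20 uM Triacsin C.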

[1] = measured here: cell number channel AC50, cells fed with added oleic acid
[2] = measured here: lipid fluorescence (Fed channel) AC50, cells fed with added oleic acid

Row | Compound | cell number change [%] | AC50 [1] | AC50 [2]
1 | Clc1ccc(C2=Nc3cc(Cl)ccc3OC2)cc1 | -0.288 | – | –
2 | CC(NC(=O)CSc1nnc(-c2cccc(S(=O)(=O)N3CCCCC3)c2)o1)C12CC3CC(CC(C3)C1)C2 (configuration not stated) | -3.09 | – | –
3 | Cc1cccc(COCC(CC(C)C)N2CCN(C(=O)c3ccc(C(C)(C)C)cc3)CCC2=O)c1 (configuration not stated) | -67.3 | 2.59 µM [falling, full curve] | 2.06 µM [falling, full curve]
4 | C/C(=N\NC(=O)c1nc2ccccn2c1C)c1cc2ccccc2o1 | 20.8 | 2.31 µM [rising, single point] | 2.31 µM [rising, full curve]
5 | COc1cc(/C=C/c2nc(N)nc(-c3ccccc3O)n2)cc(OC)c1OC | -25.5 | – | 18.4 µM [falling, single point]
6 | CCCC(=O)NCn1nnc(-c2ccc(Cl)cc2)n1 | 16.9 | – | 0.00461 µM [rising, full curve, poor fit]
7 | C=CCn1c(CC(C)(C)C)nc2ccccc21 | 2.49 | 0.731 µM [rising, single point] | –
8 | COc1ccc(-c2cn[nH]c2-c2ccc(OCc3ccccc3)cc2O)cc1 | -55.5 | – | 16.4 µM [falling, single point]
9 | Cc1ccc2oc(C(=O)N(Cc3ccc(N(C)C)cc3)CC3CCCO3)c(C)c2c1 (configuration not stated) | -68.3 | 8.2 µM [falling, single point] | 5.8 µM [rising, single point]
10 | CCN(CCCNC(=O)CC(C(=O)N1CCc2ccccc21)n1ccnc1)c1cccc(C)c1 (configuration not stated) | -36.2 | 7.31 µM [falling, partial curve] | 0.058 µM [falling, full curve]
11 | CCCCNC(=O)C1CCC(CNc2c(N3CCC(C)CC3)c(=O)c2=O)CC1 (configuration not stated) | -19.2 | – | 7.31 µM [falling, partial curve]
12 | O=C1N/C(=C\c2ccc(O)cc2)C(O)=C1C=NCc1ccccc1 | -5.62 | – | 23.1 µM [rising, single point]
13 | C/C(=N\NC(=O)Nc1ccccc1)c1ccc2ccccc2c1 | -10.4 | – | 1.16 µM [falling, single point]
14 | O=C(Cc1n[nH]c(=O)[nH]c1=O)N/N=C/c1cccc(O)c1 | -25.3 | 0.00411 µM [falling, full curve, poor fit] | 2.91 µM [falling, single point]
15 | O=[N+]([O-])c1nn(-c2ccc3c(c2)OCCO3)n(O)c1=NCCC1=CCCCC1 | -3.52 | – | 16.4 µM [falling, single point]
16 | CCC(C)NC(=O)[C@H]1N2C(=O)c3c(ccc(OC)c3OC)C2SC1(C)C (some centres not stated) | 23.9 | – | 6.51 µM [rising, single point]
17 | O=C(CCS(=O)(=O)c1ccc(Cl)cc1)Nc1nc(-c2ccncc2)cs1 | -24.2 | – | 6.51 µM [rising, single point]
18 | Cc1cc(NC(=O)CN2C(=O)NC3(CCCCC3C)C2=O)no1 (configuration not stated) | 0.314 | – | –
19 | CC(C)(C)C1CCC(=NNc2ccc(S(N)(=O)=O)cc2[N+](=O)[O-])CC1 (configuration not stated) | -39.2 | 20.6 µM [falling, single point] | 14.6 µM [falling, partial curve]
20 | Cc1cccc(NC(=O)C2CC(=O)n3ncnc3N2)c1 (configuration not stated) | -15 | – | 0.731 µM [falling, full curve, poor fit]

Row | Compound | cell number change [%] | AC50 [1] | AC50 [2]
21 | Cn1cnnc1SCC(=O)NCc1cccc(C(F)(F)F)c1 | 63.3 | 8.2 µM [rising, partial curve] | –
22 | COc1cc(C2OC(=O)c3c2ccc(OC)c3OC)ccc1O (configuration not stated) | 11.5 | – | 5.8 µM [falling, full curve]
23 | O=C(CSc1nnc(COc2ccc(Cl)cc2)o1)N1CCCC1 | – | – | 29.1 µM [rising, single point]
24 | Cc1ccc(NC(=O)CN(C)CC(=O)N(C)Cc2ccccc2)cc1 | -10.8 | – | 18.4 µM [falling, single point]
25 | CCCn1nnnc1SCC(=O)Nc1ccc(F)cc1 | 0.715 | – | 23.1 µM [rising, single point]
26 | CCc1cc(C(=O)NCC2CCCO2)sc1C (configuration not stated) | 4.91 | – | –
27 | CSc1ccc(CNC(=O)C2CCC(=O)N(Cc3cccc(F)c3)C2)cc1 (configuration not stated) | 12.7 | 1.64 µM [rising, partial curve] | 14.6 µM [falling, single point]
28 | COc1ccc(CCC(=O)Nc2nc3ccccc3[nH]2)cc1 | – | – | 6.51 µM [falling, single point]
29 | O=[N+]([O-])c1cccc(-c2csc(Nc3ccccc3)n2)c1 | -21.2 | – | 29.1 µM [falling, single point]
30 | O=C(NCCCN1CCCC1=O)C1CCCO1 (configuration not stated) | -10.6 | 0.164 µM [falling, full curve] | 0.13 µM [falling, full curve, poor fit]
31 | O=C(C1CCCN(c2ncnc3c2nc2n3CCCCC2)C1)N1CCCCC1 (configuration not stated) | 16 | 6.51 µM [rising, single point] | 6.51 µM [rising, single point]
32 | Cc1cc(C)cc(NC(=O)c2cccn2-c2ncc(C(F)(F)F)cc2Cl)c1 | 4.02 | – | 20.6 µM [falling, single point]
33 | COc1ccc(C(=O)NCCS(=O)(=O)NCC2CCCO2)cc1 (configuration not stated) | -16.9 | 0.00461 µM [falling, full curve, poor fit] | 0.164 µM [falling, full curve, poor fit]
34 | COc1cccc(CNC(=O)CSc2nnc3c(n2)[nH]c2ccc(OC)cc23)c1 | 140 | 20.6 µM [rising, partial curve] | 0.651 µM [falling, full curve]
35 | C=CCSc1nc(C)c2cc(C)cc(C)c2n1 | – | – | 4.61 µM [falling, single point]
36 | Clc1cc2nc3ccccn3c2cc1Cl | -17.4 | – | 0.00411 µM [falling, full curve, poor fit]
37 | CCCNC(=O)NC(=O)COC(=O)c1cccc(NS(=O)(=O)c2ccc(F)c(F)c2)c1 | -57.7 | 29.1 µM [falling, single point] | 6.51 µM [rising, partial curve, poor fit]
38 | Cc1ccc2c(NC(=O)C3CC3)cccc2n1 | -3.28 | 6.51 µM [falling, single point] | 6.51 µM [falling, single point]
39 | Cc1cccc(N2CCN(C(c3cccs3)c3nnnn3C(C)(C)C)CC2)c1C (configuration not stated) | 4.65 | – | –
40 | CN1CCN(C2CCN(Cc3ccc(O)c4ncccc34)CC2)CC1 | -11.9 | – | 0.00461 µM [rising, full curve, poor fit]

Looked up by structure from the list above, 3 records:
Row | Compound | cell number change [%] | AC50 [1] | AC50 [2]
39 | Cc1cccc(N2CCN(C(c3cccs3)c3nnnn3C(C)(C)C)CC2)c1C (configuration not stated) | 4.65 | – | –
38 | Cc1ccc2c(NC(=O)C3CC3)cccc2n1 | -3.28 | 6.51 µM [falling, single point] | 6.51 µM [falling, single point]
30 | O=C(NCCCN1CCCC1=O)C1CCCO1 (configuration not stated) | -10.6 | 0.164 µM [falling, full curve] | 0.13 µM [falling, full curve, poor fit]

Next results:

Row | Compound | cell number change [%] | AC50 [1] | AC50 [2]
41 | C=CCOc1ccc(/C=N/NC(=O)CN2CCCCC2)cc1OC | 4.91 | – | 7.31 µM [rising, partial curve]
42 | Cn1c(CCNC(=O)c2ccc(Cl)c(Cl)c2)nnc1SCc1ccc(Cl)c(Cl)c1 | -45.6 | 29.1 µM [falling, single point] | 29.1 µM [falling, single point]
43 | CCOC(=O)c1cncc(C#CCO)c1 | 31 | – | –
44 | Cc1ccc(NC(=S)NCCc2c[nH]c3ccccc23)c(C)c1 | -5.16 | – | 7.31 µM [falling, single point]
45 | CC1(C)Cc2c(sc3nc(-c4ccccc4)n(N)c(=O)c23)CO1 | 0.384 | 4.61 µM [falling, single point] | –
46 | COc1ccc(C(=O)C(C)OC(=O)c2nc3nccc(C)n3n2)cc1 (configuration not stated) | -3.37 | – | 6.51 µM [falling, single point]
47 | CC12CCC(C(=O)N(CSC(=S)N/N=C\c3ccccc3)C1=O)C2(C)C (configuration not stated) | -18.6 | – | 20.6 µM [falling, partial curve, poor fit]
48 | CSCCC(NC(=O)c1ccco1)C(=O)NCC(c1ccccc1)N(C)C (configuration not stated) | 17.7 | – | 1.84 µM [rising, partial curve]
49 | O=C(c1cnc2n(c1=O)CCS2)N1CCN(C(c2ccccc2)c2ccc(Cl)cc2)CC1 (configuration not stated) | 2.75 | – | 32.6 µM [falling, single point]
50 | CCOc1ccc(N(CC(=O)NC2CCCC2)C(=O)CCC(=O)Nc2nc(C)cs2)cc1 | 4.03 | – | 20.6 µM [falling, single point]
51 | O=S(=O)(CCSc1ccc(C(F)(F)F)cn1)c1ccccc1 | -60.1 | 23.1 µM [falling, partial curve, poor fit] | 5.17 µM [falling, partial curve]
52 | O=C(/C=C/c1cccs1)N1CCc2ccccc21 | -2.16 | – | 0.326 µM [rising, full curve, poor fit]
53 | CCN(CC(=O)NC(C)C)C(=O)C(CCSC)NC(=O)c1cccc(C)c1 (configuration not stated) | 54.8 | 6.51 µM [falling, single point] | 29.1 µM [rising, single point]
54 | COCCNC(=O)/C(C#N)=C/c1cn(CC(=O)NCc2ccco2)c2ccccc12 | -31.7 | 5.8 µM [falling, single point] | 20.6 µM [falling, single point]
55 | c1ccc2c(Cn3ccnc3)c[nH]c2c1 | -11.6 | – | 4.11 µM [falling, partial curve, poor fit]
56 | O=C(c1ccccc1)N1CCc2ccccc21 | – | 1.84 µM [rising, partial curve, poor fit] | –
57 | COc1cccc(CNC(=O)Cn2ccc3cc(S(=O)(=O)N4CCCC4)ccc32)c1OC | 3.36 | – | –
58 | COc1ccc2cc(C3CC(c4ccco4)=NN3C(=O)CCC(=O)O)c(Cl)nc2c1 (configuration not stated) | -21.7 | – | 0.0291 µM [falling, full curve, poor fit]
